Assay results from patent US20200392471.

Amino acid sequences for entries named in this document (tags omitted).
UniProt P19821, whole entry: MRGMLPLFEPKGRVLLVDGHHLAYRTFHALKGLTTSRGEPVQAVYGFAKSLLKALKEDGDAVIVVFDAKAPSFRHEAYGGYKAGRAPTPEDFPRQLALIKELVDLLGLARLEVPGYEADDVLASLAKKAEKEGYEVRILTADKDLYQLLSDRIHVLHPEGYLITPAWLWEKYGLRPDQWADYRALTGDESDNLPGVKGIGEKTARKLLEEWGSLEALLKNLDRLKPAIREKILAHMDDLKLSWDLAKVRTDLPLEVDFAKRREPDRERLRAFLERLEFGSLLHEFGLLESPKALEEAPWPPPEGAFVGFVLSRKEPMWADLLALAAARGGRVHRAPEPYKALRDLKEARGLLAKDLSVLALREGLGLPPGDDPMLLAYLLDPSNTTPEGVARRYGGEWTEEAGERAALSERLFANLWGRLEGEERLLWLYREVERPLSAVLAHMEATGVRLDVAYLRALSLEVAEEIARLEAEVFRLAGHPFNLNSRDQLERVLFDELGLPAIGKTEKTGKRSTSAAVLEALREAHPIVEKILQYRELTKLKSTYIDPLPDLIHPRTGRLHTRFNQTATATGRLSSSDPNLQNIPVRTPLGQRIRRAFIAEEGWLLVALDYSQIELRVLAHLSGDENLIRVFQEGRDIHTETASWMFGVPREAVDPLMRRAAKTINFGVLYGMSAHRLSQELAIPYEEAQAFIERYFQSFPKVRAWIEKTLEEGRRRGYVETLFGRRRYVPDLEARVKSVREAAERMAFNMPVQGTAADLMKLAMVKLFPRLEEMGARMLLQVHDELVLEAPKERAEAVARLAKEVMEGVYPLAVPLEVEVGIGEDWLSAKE

Tests used:
[1] = molecular target: T1, Afu Uracil-DNA Glycosylase (UniProt O28007); assay: activity assay; conditions: purified recombinant protein, protein details: New England Biolabs M0279S
T1 sequence (looked up, limits assumed): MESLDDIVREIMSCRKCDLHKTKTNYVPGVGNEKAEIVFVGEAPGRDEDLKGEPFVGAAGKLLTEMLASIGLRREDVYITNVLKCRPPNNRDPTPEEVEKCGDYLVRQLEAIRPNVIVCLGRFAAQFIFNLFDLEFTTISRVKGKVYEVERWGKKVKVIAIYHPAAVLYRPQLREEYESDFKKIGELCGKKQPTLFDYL

[2] = molecular target: Taq DNA polymerase (UniProt P19821); assay: inhibition of the protein; conditions: purified recombinant protein, folded or branched DNA

AAATTATATTCTTAGCGTTUTATAATTTTAAAACGAAGTTTTA [circular aptamer SEQ ID NO:20]
activity on this sequence ([1]; deoxyuridine at loop position 12, Taq reactivation, pattern stated similar to noncircular set, folded or branched DNA): active | functional effect of the aptamer ([2]; deoxyuridine at loop position 12, incomplete inactivation at 80 nM, protein details: GenScript E00007): less active

AAATTATATTCTTAGCGTTTTATAATTTTAAAACGAAGTTTTA [circular aptamer SEQ ID NO:13 (unmodified)]
activity on this sequence ([1]; no dU, pattern stated similar to noncircular SEQ 5, folded or branched DNA): not active | functional effect of the aptamer ([2]; 80 nM aptamer blocks PCR, 5 mM MgCl2, 50 mM KCl, pH 8.0, protein details: GenScript E00007): active

TGCGCGATTTAAAGCGATTCUTAGCGTTTTCGCTTTAAATCGCGCAT [aptamer SEQ ID NO:8]
functional effect of the aptamer ([2]; deoxyuridine at loop position 4, 80 nM aptamer blocks PCR, also with UDG present, protein details: GenScript E00007): active

AAATTATAUTCTTAGCGTTTTATAATTTTAAAACGAAGTTTTA [circular aptamer SEQ ID NO:14]
activity on this sequence ([1]; deoxyuridine at loop position 1, Taq reactivation, pattern stated similar to noncircular set, folded or branched DNA): active | functional effect of the aptamer ([2]; deoxyuridine at loop position 1, incomplete inactivation at 80 nM, protein details: GenScript E00007): less active

TGCGCGATTTAAAGCGATUCTTAGCGTTTTCGCTTTAAATCGCGCAT [aptamer SEQ ID NO:7]
activity on this sequence ([1]; deoxyuridine at loop position 2, UDG reactivates aptamer-blocked Taq in PCR, folded or branched DNA): active | functional effect of the aptamer ([2]; deoxyuridine at loop position 2, 80 nM aptamer blocks PCR, 5 mM MgCl2, 50 mM KCl, pH 8.0, protein details: GenScript E00007): active

AAATTATATUCTTAGCGTTTTATAATTTTAAAACGAAGTTTTA [circular aptamer SEQ ID NO:15]
activity on this sequence ([1]; deoxyuridine at loop position 2, Taq reactivation, pattern stated similar to noncircular set, folded or branched DNA): active | functional effect of the aptamer ([2]; deoxyuridine at loop position 2, 80 nM aptamer blocks PCR, protein details: GenScript E00007): active

TGCGCGATTTAAAGCGATTCTTAGCGTUTTCGCTTTAAATCGCGCAT [aptamer SEQ ID NO:11]
activity on this sequence ([1]; deoxyuridine at loop position 11, UDG reactivates aptamer-blocked Taq in PCR, folded or branched DNA): active | functional effect of the aptamer ([2]; deoxyuridine at loop position 11, 80 nM aptamer blocks PCR, 5 mM MgCl2, 50 mM KCl, pH 8.0, protein details: GenScript E00007): active

AAATTATATTCUTAGCGTTTTATAATTTTAAAACGAAGTTTTA [circular aptamer SEQ ID NO:16]
functional effect of the aptamer ([2]; deoxyuridine at loop position 4, 80 nM aptamer blocks PCR, protein details: GenScript E00007): active

TGCGCGATTTAAAGCGATTCTUAGCGTTTTCGCTTTAAATCGCGCAT [aptamer SEQ ID NO:9]
functional effect of the aptamer ([2]; deoxyuridine at loop position 5, 80 nM aptamer blocks PCR, also with UDG present, protein details: GenScript E00007): active

TGCGCGATTTAAAGCGAUTCTTAGCGTTTTCGCTTTAAATCGCGCAT [aptamer SEQ ID NO:6]
activity on this sequence ([1]; deoxyuridine at loop position 1, UDG reactivates aptamer-blocked Taq in PCR, folded or branched DNA): active | functional effect of the aptamer ([2]; deoxyuridine at loop position 1, 80 nM aptamer blocks PCR, 5 mM MgCl2, 50 mM KCl, pH 8.0, protein details: GenScript E00007): active

TGCGCGATTTAAAGCGATTCTTAGCGTTTTCGCTTTAAATCGCGCAT [aptamer SEQ ID NO:5 (noncircular, unmodified)]
activity on this sequence ([1]; no dU, no Taq reactivation in PCR, folded or branched DNA): not active | functional effect of the aptamer ([2]; 80 nM aptamer blocks PCR, 5 mM MgCl2, 50 mM KCl, 20 mM Tris pH 8.0, 60 C extension, protein details: GenScript E00007): active

TGCGCGATTTAAAGCGATTCTTAGCGUTTTCGCTTTAAATCGCGCAT [aptamer SEQ ID NO:10]
activity on this sequence ([1]; deoxyuridine at loop position 10, incomplete Taq reactivation, folded or branched …): less active | functional effect of the aptamer ([2]; deoxyuridine at loop position 10, 80 nM aptamer blocks PCR, only partly relieved by UDG, protein details: GenScript E00007): active

AAATTATATTCTUAGCGTTTTATAATTTTAAAACGAAGTTTTA [circular aptamer SEQ ID NO:17]
functional effect of the aptamer ([2]; deoxyuridine at loop position 5, 80 nM aptamer blocks PCR, protein details: GenScript E00007): active

AAATTATATTCTTAGCGTUTTATAATTTTAAAACGAAGTTTTA [circular aptamer SEQ ID NO:19]
activity on this sequence ([1]; deoxyuridine at loop position 11, Taq reactivation, pattern stated similar to noncircular set, folded or branched DNA): active | functional effect of the aptamer ([2]; deoxyuridine at loop position 11, incomplete inactivation at 80 nM, least inhibitory of the set, protein details: GenScript …): less active

AAATTATATTCTTAGCGUTTTATAATTTTAAAACGAAGTTTTA [circular aptamer SEQ ID NO:18]
activity on this sequence ([1]; deoxyuridine at loop position 10, effective Taq reactivation, unlike noncircular SEQ 10, folded or branched DNA): active | functional effect of the aptamer ([2]; deoxyuridine at loop position 10, 80 nM aptamer blocks PCR, protein details: GenScript E00007): active

For some assays here: No signal at the amounts used counts as a negative. For some assays here: Where a protein sequence is shown, tags need not be part of it. The comparison behind a weaker result is the experiment's own reference, which may not be listed here.
